The list shows a part of the results.

Common to all, as to test: protein microarray (ProtoArray v5.0), streptavidin-Alexa Fluor 647
Holding throughout (conditions): 3'-biotin; 20 mM Tris (pH 7.5), 5 mM MgCl2, 100 mM KCl, 0.1% Tween-20, A/T-rich and random oligonucleotide blockers; temperature not stated; high values mean tight binding

Assay [1] deals with GBP6 (human).
Assay [2] relates to GCA (human).
For assay [3], the system named is GCLM (human).
The subject of assay [4] is GDPD5 (human).
Assay [5] concerns GGA2 (human).
Assay [6] has as its system GIF (human).
Assay [7] concerns GIMAP6 (human).
Assay [8] concerns GLYATL2 (human).
For assay [9], the system named is GLYCTK (human).
The test system of assay [10] is GMFB (human).

For “GGGGACAGGGGTATGGGGAGGGG [G4-3 biotinylated (CtG)]”, the binding signal in assay [1] was -0.327 z-score; in assay [2], -0.332 z-score; in assay [3], -0.319 z-score; in assay [4] it was -0.326 z-score; in assay [5], -0.336 z-score; in assay [6] it was -0.324 z-score. Also, the binding signal in assay [7] was -0.337 z-score; in assay [8], -0.317 z-score; in assay [9] it was -0.318 z-score; in assay [10], -0.321 z-score.

For the origin of these results see article PMC5996148.
